These are yes or no findings as the source states them, for the method shown.
Assays:
human ChaC2 E74Q (human) [1] = target: human ChaC2 E74Q (human) (UniProt Q8WUX2); assay: native gel or EMSA; native-PAGE of the main peak fractions of the size-exclusion chromatography; both purified
human ChaC2 E74Q (human) [2] = target: human ChaC2 E74Q (human) (UniProt Q8WUX2); assay: SEC; HiLoad 16/600 Superdex 75 pg, 20 mM Tris-HCl pH 7.1, 150 mM NaCl, 5 mM DTT, 2% glycerol, 1 mL/min, calibrated with molecular weight standards; both purified
human ChaC2 E74Q (human) [3] = target: human ChaC2 E74Q (human) (UniProt Q8WUX2); assay: crystal structure; ChaC2 E74Q and ChaC2 E83Q crystals, 3 M sodium acetate trihydrate pH 7.0, improved with 10 mM GSH or 5-L-oxoproline; three molecules (A, B, C) in the asymmetric unit; both purified
human ChaC2 E83Q (human) [4] = target: human ChaC2 E83Q (human) (UniProt Q8WUX2); assay: native gel or EMSA; native-PAGE of the main peak fractions of the size-exclusion chromatography; both purified
human ChaC2 E83Q (human) [5] = target: human ChaC2 E83Q (human) (UniProt Q8WUX2); assay: SEC; HiLoad 16/600 Superdex 75 pg, 20 mM Tris-HCl pH 7.1, 150 mM NaCl, 5 mM DTT, 2% glycerol, 1 mL/min, calibrated with molecular weight standards; both purified
human ChaC2 E83Q (human) [6] = target: human ChaC2 E83Q (human) (UniProt Q8WUX2); assay: crystal structure; ChaC2 E74Q and ChaC2 E83Q crystals, 3 M sodium acetate trihydrate pH 7.0, improved with 10 mM GSH or 5-L-oxoproline; three molecules (A, B, C) in the asymmetric unit; both purified

Protein sequences, listed by entry. Tags and fused reporters are not part of them. Lines headed by an entry give the natural chain unless they say otherwise; changes in a name come on top.
UniProt Q8WUX2: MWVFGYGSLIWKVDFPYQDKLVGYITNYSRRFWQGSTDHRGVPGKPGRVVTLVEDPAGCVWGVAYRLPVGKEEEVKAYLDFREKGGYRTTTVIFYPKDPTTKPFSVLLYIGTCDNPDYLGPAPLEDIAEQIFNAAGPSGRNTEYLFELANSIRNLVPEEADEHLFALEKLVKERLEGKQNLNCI

Row | binding (human ChaC2 E74Q (human) [1]) | binding (human ChaC2 E74Q (human) [2]) | binding (human ChaC2 E74Q (human) [3]) | binding (human ChaC2 E83Q (human) [4]) | binding (human ChaC2 E83Q (human) [5]) | binding (human ChaC2 E83Q (human) [6]) | Substance
1 | no binding | no binding | no binding | – | – | – | human ChaC2 E74Q (from UniProt Q8WUX2 1-184) (enzyme)
2 | – | – | – | no binding | no binding | no binding | human ChaC2 E83Q (from UniProt Q8WUX2 1-184) (enzyme)
